{"sequences": {"note": "Amino acid sequences for entries named in this document (tags omitted).", "UniProt P49760": "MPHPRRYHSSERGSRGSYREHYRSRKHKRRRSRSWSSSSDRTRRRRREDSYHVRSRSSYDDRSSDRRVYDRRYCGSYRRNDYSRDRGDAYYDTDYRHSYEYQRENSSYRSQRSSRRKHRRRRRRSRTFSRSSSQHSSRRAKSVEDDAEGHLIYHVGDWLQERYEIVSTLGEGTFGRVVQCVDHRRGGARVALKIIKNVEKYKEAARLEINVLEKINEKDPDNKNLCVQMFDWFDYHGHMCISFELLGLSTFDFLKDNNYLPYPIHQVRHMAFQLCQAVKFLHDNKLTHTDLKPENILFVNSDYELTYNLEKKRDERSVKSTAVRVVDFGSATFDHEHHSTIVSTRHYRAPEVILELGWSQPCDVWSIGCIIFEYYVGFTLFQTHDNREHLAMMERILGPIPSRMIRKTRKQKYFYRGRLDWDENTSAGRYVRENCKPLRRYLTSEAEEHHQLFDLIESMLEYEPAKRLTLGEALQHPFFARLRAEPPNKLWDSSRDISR"}, "source": "paper PMC12309053", "target": "T1, SRSF7-GFP fusion product (Serine/arginine-rich splicing factor 7, GFP-tagged at the C-terminus, from a BAC) (human) (UniProt Q16629)", "T1 sequence": "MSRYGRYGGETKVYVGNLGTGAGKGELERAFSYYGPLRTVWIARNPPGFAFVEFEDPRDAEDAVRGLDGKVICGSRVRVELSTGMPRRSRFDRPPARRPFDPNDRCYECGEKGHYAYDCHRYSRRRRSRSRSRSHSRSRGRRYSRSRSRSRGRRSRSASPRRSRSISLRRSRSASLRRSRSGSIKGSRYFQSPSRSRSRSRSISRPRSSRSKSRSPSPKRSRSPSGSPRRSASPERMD", "test": "co-IP; GFP-Trap agarose beads on lysates of BAC-SRSF7-GFP MDA-MB-231 cells treated with 0.1% DMSO or 1 µM T-025 for 24 h; EBC buffer, benzonase, 300 mM NaCl, 2 h at 4 °C; six washes; Western blotting; MDA-MB-231-GFP cells as negative control", "note": "No constants are given. Whether binding was seen depends on the method and setting. In cells and extracts the contact can be indirect. Some binding calls cover weakened binding; strength is not graded here. Sequences can lack the tags named with a protein.", "data": [{"substance": "CLK2 (from UniProt P49760 1-499)", "values": [{"measurement": "binding", "result": "binds"}]}]}
